# Where “and” joins values, the source holds several entries; their conditions need not be identical. Equal values may be shown once. Where a name gives a salt, the structure may show the parent alone. The list shows a part of the results. Single values are uncertain here, since repeats match poorly.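 Wild-type human LRH-1, a heavily sumoylated nuclear receptor, is tetracycline-inducible in stable JEG3 cells. RT-qPCR measured SUMO-sensitive APOC3 and MUC1 transcripts, which rise with SUMO-less LRH-1 or UBC9 knockdown, versus TBP and DMSO controls. Robust Z-scores beyond ±2 flagged primary hits, followed by toxicity and TBP filtering.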
# Test system: JEG3 expressing hLRH-1
# Assay: APOC3 transcript change (ddCt vs TBP and DMSO), Z-score over library; higher = higher APOC3 expression
# Details: 10 µM; time (hr): 24
row,Compound,APOC3 transcript change (Z-score)
1,CC(C)(S)[C@@H](N)C(=O)O [penicillamine],-0.77
2,O=C1O[C@H](CO)[C@@H](O)[C@H](O)[C@H]1O [gluconolactone],0.548
3,COc1ccc2cc3[n+](cc2c1OC)CCc1cc2c(cc1-3)OCO2 [berberine chloride],-0.919
4,CC[C@H]1OC(=O)[C@H](C)[C@@H](O[C@H]2C[C@@](C)(OC)[C@@H](O)[C@H](C)O2)[C@H](C)[C@@H](O[C@@H]2O[C@H](C)C[C@H](N(C)C)[C@H]2O)[C@](C)(O)C[C@@H](C)[C@@H]2N[C@@H](COCCOC)O[C@H]([C@H]2C)[C@]1(C)O [dirithromycin],0.294
5,O=C1CN2Cc3c(ccc(Cl)c3Cl)N=C2N1 [anagrelide hydrochloride],0.216
6,CCCCCCCCCCC[C@@H](C[C@@H]1OC(=O)[C@H]1CCCCCC)OC(=O)[C@H](CC(C)C)NC=O [orlistat],1.41
7,C[C@H]1CC2C3CCC4=CC(=O)C=C[C@]4(C)[C@@]3(F)[C@@H](O)C[C@]2(C)[C@@]1(O)C(=O)CO (some centres not stated) [betamethasone],0.121
8,OC(CCN1CCCCC1)(c1ccccc1)C1CCCCC1 (configuration not stated) [Trihexyphenidyl hydrochloride],-0.213
9,OCCOCCN1CCN(C2=Nc3ccccc3Sc3ccccc32)CC1 [quetiapine],-1.14
10,Cc1ncc([N+](=O)[O-])n1CC(O)CCl (configuration not stated) [ornidazole],-0.931
11,COc1ccc(/C=C/C(=O)Nc2ccccc2C(=O)O)cc1OC [tranilast],0.0523
12,C#C[C@]1(O)CC[C@H]2[C@@H]3CCc4cc(OC5CCCC5)ccc4[C@H]3CC[C@@]21C [quinestrol],-0.361
13,Cc1nc(N)cc(C[n+]2csc(CCO)c2C)n1 [thiamine],0.0941
14,Cc1ccccc1N1C(=O)c2cc(S(N)(=O)=O)c(Cl)cc2NC1C (configuration not stated) [metolazone],0.696
15,COc1cc(Cc2cnc(N)nc2N)cc(OC)c1OC [Trimethoprim],0.17
16,COc1ccccc1OCCNCC(O)COc1cccc2[nH]c3ccccc3c12 (configuration not stated) [carvedilol],0.356 and 0.412
17,CC[C@@]1(O)C(=O)OCc2c1cc1n(c2=O)Cc2cc3c(CN(C)C)c(O)ccc3nc2-1 [topotecan hydrochloride],-3.44
18,COCC1=C(C(=O)OC(C)OC(=O)OC(C)C)N2C(=O)[C@@H](NC(=O)/C(=N\OC)c3csc(N)n3)[C@H]2SC1 (some centres not stated) [cefpodoxime proxetil],-0.000448
19,C[C@H]1[C@H](OC(=O)CCC(=O)O)O[C@@H]2O[C@@]3(C)CC[C@H]4[C@H](C)CC[C@@H]1[C@@]24OO3 [artesunate],0.294
20,CCCCC(CC)CN1CN(CC(CC)CCCC)CC(C)(N)C1 (configuration not stated) [hexetidine],0.308
21,O=C(O)CN(CCN(CC(=O)O)CC(=O)O)CCN(CC(=O)O)CC(=O)O [pentetic acid],1.04
22,Cc1c(NC(C)C)c(=O)n(-c2ccccc2)n1C [ramifenazone],-0.189
23,C[C@H](Cn1cnc2c(N)ncnc21)OCP(=O)(O)O [tenofovir],0.525
24,C[C@@H]1CN(c2c(F)c(F)c3c(=O)c(C(=O)O)cn(C4CC4)c3c2F)C[C@H](C)N1 [orbifloxacin],0.237

# 4 records drawn at random from those above:
row,Compound,APOC3 transcript change (Z-score)
22,Cc1c(NC(C)C)c(=O)n(-c2ccccc2)n1C [ramifenazone],-0.189
9,OCCOCCN1CCN(C2=Nc3ccccc3Sc3ccccc32)CC1 [quetiapine],-1.14
18,COCC1=C(C(=O)OC(C)OC(=O)OC(C)C)N2C(=O)[C@@H](NC(=O)/C(=N\OC)c3csc(N)n3)[C@H]2SC1 (some centres not stated) [cefpodoxime proxetil],-0.000448
15,COc1cc(Cc2cnc(N)nc2N)cc(OC)c1OC [Trimethoprim],0.17

# The list continues:

row,Compound,APOC3 transcript change (Z-score)
1,C#C[C@]1(O)CCC2C3CCC4=C(CCC(=O)C4)C3CC[C@@]21C (some centres not stated) [norethynodrel],0.439
2,CCCCNc1ccc(C(=O)OCCOCCOCCOCCOCCOCCOCCOCCOCCOC)cc1 [benzonatate],-0.926
3,O=C(OCc1ccccc1)c1ccccc1 [benzyl benzoate],0.182
4,COc1ccc(Cc2cnc(N)nc2N)cc1OC [diaveridine],-0.256
5,Cc1c(N(C)CS(=O)(=O)O)c(=O)n(-c2ccccc2)n1C [dipyrone],-0.644
6,CC(C)CC(N)=O [isovaleramide],-1.09
7,COCCCOc1cc(C[C@@H](C[C@H](N)[C@@H](O)C[C@H](C(=O)NCC(C)(C)C(N)=O)C(C)C)C(C)C)ccc1OC [aliskiren hemifumarate],0.238
8,O=P(O)(O)C(O)(Cc1cccnc1)P(=O)(O)O [risedronate sodium],-0.0644
9,C[C@H](CCC(=O)O)[C@H]1CCC2C3C(CC[C@@]21C)[C@@]1(C)CC[C@@H](O)C[C@H]1C[C@@H]3O (some centres not stated) [ursodiol],-0.314
10,Cc1onc(-c2c(Cl)cccc2Cl)c1C(=O)N[C@@H]1C(=O)N2[C@@H]1SC(C)(C)[C@@H]2C(=O)O [dicloxacillin sodium],0.626
11,CCCCC(=O)N(Cc1ccc(-c2ccccc2-c2nn[nH]n2)cc1)[C@H](C(=O)O)C(C)C [valsartan],-0.175
12,O=C(O)c1cc(N=Nc2ccc(S(=O)(=O)Nc3ccccn3)cc2)ccc1O [sulfasalazine],-0.439
13,CCCCOC(=O)c1ccc(N)cc1 [butamben],-0.611
14,NNC(=O)c1ccncc1.Nc1ccc(C(=O)O)c(O)c1 [pasiniazid],-0.209
15,O=C(CCCl)NCCc1ccccc1 [fenaclon],-0.0642
16,NS(=O)(=O)c1cc2c(cc1Cl)NC=NS2(=O)=O [Chlorothiazide],0.466
17,CNS(=O)(=O)Cc1ccc2[nH]cc(CCN(C)C)c2c1 [sumatriptan succinate],-0.94
18,NS(=O)(=O)c1cc(C(=O)O)c(NCc2ccco2)cc1Cl [furosemide],-1.06
19,Cc1cc2cc3c(C)cc(=O)oc3c(C)c2o1 [trioxsalen],-0.0912
20,CCCCC(CC)COc1ccc(-c2nc(-c3ccc(OC)cc3)nc(-c3ccc(OCC(CC)CCCC)cc3O)n2)c(O)c1 (configuration not stated) [bemotrizinol],-0.0333
21,CN(C)CC(c1ccc(O)cc1)C1(O)CCCCC1 (configuration not stated) [desvenlafaxine succinate],-0.179
22,O=c1n(CCCN2CCN(c3cccc(Cl)c3)CC2)nc2ccccn12 [Trazodone hydrochloride],0.301
23,CC(CN(C)C)CN1c2ccccc2CCc2ccccc21 (configuration not stated) [trimipramine maleate],0.271
24,CN1CCCN=C1COC(=O)C(O)(c1ccccc1)C1CCCCC1 (configuration not stated) [oxyphencyclimine hydrochloride],-0.187

row,Compound,APOC3 transcript change (Z-score)
1,COc1c(C)c2c(c(O)c1C/C=C(\C)CCC(=O)O)C(=O)OC2 [mycophenolic acid],2.11
2,CC(=O)Nc1ccc(CC(=O)O)cc1 [actarit],2.94
3,CC(=O)OCC(=O)[C@@]12N=C(C)O[C@@H]1C[C@H]1[C@@H]3CCC4=CC(=O)C=C[C@]4(C)[C@H]3[C@@H](O)C[C@@]12C [deflazacort],1.48
4,C1CCN2C[C@@H]3C[C@H](CN4CCCC[C@@H]34)[C@H]2C1 [sparteine sulfate],-0.0227
5,CCN1CCCC(OC(=O)C(c2ccccc2)c2ccccc2)C1 (configuration not stated) [piperidolate hydrochloride],-0.397
6,CC(C)(C)NC[C@H](O)c1ccc(O)c(CO)c1 [levalbuterol hydrochloride],0.475
7,CN(C)[C@@H]1C(=O)C(C(=O)NCN2CCCC2)=C(O)[C@@]2(O)C(O)=C3C(=O)c4c(O)cccc4[C@@](C)(O)[C@H]3C[C@@H]12 [rolitetracycline],1.19
8,CC(C)Nc1ncccn1 [isaxonine],0.352
9,CCCCCCCCCCCCC[N+](C)(C)Cc1ccccc1 [benzalkonium chloride],0.708
10,CCCCCCCCCCOc1cc2c(O)c(C(=O)OCC)cnc2cc1OCC [decoquinate],0.908
11,CCc1cccc2c3c([nH]c12)C(CC)(CC(=O)O)OCC3 (configuration not stated) [etodolac],0.254
12,CC(=O)[C@H]1CC[C@H]2[C@@H]3C[C@H](C)C4=CC(=O)CC[C@]4(C)[C@H]3[C@@H](O)C[C@]12C [medrysone],1.1
13,CN1C(C(=O)Nc2ccccn2)=C(O)c2sccc2S1(=O)=O [tenoxicam],-0.762
14,CCCCNC(=O)NS(=O)(=O)c1ccc(C)cc1 [Tolbutamide],-0.958
15,C[C@]12C=CC(=O)C=C1CC[C@@H]1[C@@H]2[C@@H](O)C[C@@]2(C)[C@H]1CC[C@]2(O)C(=O)COC(=O)CCC(=O)O [prednisolone hemisuccinate],-0.244
16,COC(=O)[C@@H]1[C@H]2C[C@H]3c4[nH]c5ccccc5c4CCN3C[C@@H]2CC[C@@H]1O [yohimbine hydrochloride],-0.195
17,O=C1CCc2ccc(OCCCCN3CCN(c4cccc(Cl)c4Cl)CC3)cc2N1 [aripiprazole],0.367
18,O=C(O)c1ccc[n+]([O-])c1 [oxiniacic acid],-2.35
19,CCCCCCc1ccc(O)cc1O [hexylresorcinol],0.221
20,C[C@H]1COc2c(C3(N)CC3)c(F)cc3c(=O)c(C(=O)O)cn1c23 [pazufloxacin mesylate],-1.29
21,CCC(C)[C@H]1O[C@]2(C=C[C@@H]1C)C[C@@H]1C[C@@H](C/C=C(\C)[C@@H](OC3C[C@H](OC)C(O[C@H]4C[C@H](OC)[C@@H](NC(C)=O)[C@H](C)O4)[C@H](C)O3)[C@@H](C)/C=C/C=C3\CO[C@@H]4[C@H](O)C(C)=C[C@@H](C(=O)O1)[C@]34O)O2 (some centres not stated) [eprinomectin],1.04
22,C[C@]12CC[C@@H]3c4ccc(O)cc4C[C@@H](CCCCCCCCCS(=O)CCCC(F)(F)C(F)(F)F)[C@H]3[C@@H]1CC[C@@H]2O (some centres not stated) [fulvestrant],-0.581
23,CO[C@@H]1[C@@H](O[C@@H]2O[C@H](C)[C@@H](O[C@H]3C[C@@](C)(O)[C@H](O)[C@H](C)O3)[C@H](N(C)C)[C@H]2O)[C@@H](CC=O)C[C@@H](C)[C@@H](O[C@H]2CC[C@H](N(C)C)[C@@H](C)O2)/C=C/C=C/C[C@H](C)OC(=O)C[C@H]1O [spiramycin],0.4
24,N=C(N)NCC1COC2(CCCCC2)O1 (configuration not stated) [guanadrel sulfate],-0.558

# Molecules above with a furan ring, fused or not (two):
row,Compound,APOC3 transcript change (Z-score)
18,NS(=O)(=O)c1cc(C(=O)O)c(NCc2ccco2)cc1Cl [furosemide],-1.06
19,Cc1cc2cc3c(C)cc(=O)oc3c(C)c2o1 [trioxsalen],-0.0912

# Reference: the supplement of paper PMC4749390
